Data from article PMC5722644.
These are yes or no findings as the source states them, for the method shown. In cells and extracts the contact can be indirect. Here binding means that the protein was enriched with, or labelled near, the bait; the list need not be complete. Where a sequence is shown, tags or fusion partners need not be part of it.

T1: FLAG-tagged Drosophila spartin (Drosophila) (UniProt Q9VN45)
T1 sequence: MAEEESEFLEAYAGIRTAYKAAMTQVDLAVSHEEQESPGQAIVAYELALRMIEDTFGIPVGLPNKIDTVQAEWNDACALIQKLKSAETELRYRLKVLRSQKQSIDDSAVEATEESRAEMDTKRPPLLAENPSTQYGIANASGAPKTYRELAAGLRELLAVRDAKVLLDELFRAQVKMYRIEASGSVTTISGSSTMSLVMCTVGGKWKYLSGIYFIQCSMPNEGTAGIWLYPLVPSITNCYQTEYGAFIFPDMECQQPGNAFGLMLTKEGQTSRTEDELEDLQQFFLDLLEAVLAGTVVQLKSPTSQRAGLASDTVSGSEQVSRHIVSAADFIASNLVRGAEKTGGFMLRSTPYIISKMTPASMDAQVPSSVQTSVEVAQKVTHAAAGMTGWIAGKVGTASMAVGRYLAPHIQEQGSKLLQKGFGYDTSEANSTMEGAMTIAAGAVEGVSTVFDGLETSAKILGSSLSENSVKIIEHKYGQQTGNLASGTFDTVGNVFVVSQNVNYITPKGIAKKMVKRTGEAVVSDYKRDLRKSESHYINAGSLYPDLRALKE

B1: Rpn2 (protein, UniProt P32565 1-945)
chain: MSLTTAAPLLALLRENQDSVKTYALESINNVVDQLWSEISNELPDIEALYDDDTFSDREMAALIASKVYYNLGEYESAVKYALAAKDRFDIDEKSQFVETIVSKSIEMYVQEASKQYTKDEQFYTKDIIDPKLTSIFERMIEKCLKASELKLALGIALEGYRLDIIESALKSKLDQDSTSENVKIINYLLTLAITTVTNSKFRSSILRKSFDFLMNMPNCDYLTLNKVVVNLNDAGLALQLFKKLKEENDEGLSAQIAFDLVSSASQQLLEILVTELTAQGYDPALLNILSGLPTCDYYNTFLLNNKNIDIGLLNKSKSSLDGKFSLFHTAVSVANGFMHAGTTDNSFIKANLPWLGKAQNWAKFTATASLGVIHKGNLLEGKKVMAPYLPGSRASSRFIKGGSLYGLGLIYAGFGRDTTDYLKNIIVENSGTSGDEDVDVLLHGASLGIGLAAMGSANIEVYEALKEVLYNDSATSGEAAALGMGLCMLGTGKPEAIHDMFTYSQETQHGNITRGLAVGLALINYGRQELADDLITKMLASDESLLRYGGAFTIALAYAGTGNNSAVKRLLHVAVSDSNDDVRRAAVIALGFVLLRDYTTVPRIVQLLSKSHNAHVRCGTAFALGIACAGKGLQSAIDVLDPLTKDPVDFVRQAAMIALSMILIQQTEKLNPQVADINKNFLSVITNKHQEGLAKFGACVAQGIMNAGGRNVTIQLENADTGTLDTKSVVGLVMFSQFWYWFPLAHFLSLSFTPTTVIGIRGSDQAIPKFQMNCYAKEDAFSYPRMYEEASGKEVEKVATAVLSTTARAKARAKKTKKEKGPNEEEKKKEHEEKEKERETNKKGIKETKENDEEFYKNKYSSKPYKVDNMTRILPQQSRYISFIKDDRFVPVRKFKGNNGVVVLRDREPKEPVALIETVRQMKDVNAPLPTPFKVDDNVDFPSA
B2: Atg20 (protein, UniProt Q07528 1-640)
chain: MSDLNDVQENAKLNSETRNTGKAEPPHGTTEYVAEAEISKNGVGSPKKSPKKGKVGKGDNNKVETELVHTALLEKDNPFMEEGPTGFTKSALLEIPGMRSHNLKNPNEDYEDDSEGLLPLNQESNAETCRTSLSGSINSMNGETSASEEPSVSNRKKSARIHILEAKRVSEGQGRAYIAYVIQFENSTVQRRYSDFESLRSILIRLFPMTLIPPIPEKQSIKNYGKSITGSSSKYLLPSEGSGSVDLSLSVIHASVNNSDEKLIRHRIRMLTEFLNKLLTNEEITKTSIITDFLDPNNHNWHEFVNSSSTFSSLPKSILQCNPLDPTNTTRIHAMLPIPGSSSQLLLNKESNDKKMDKERSKSFTNIEQDYKQYENLLDNGIYKYNRRTTKTYHDLKSDYNEIGEVFAQFAHEQAQVGELAEQLSYLSNAFSGSSISLEKLVGRLYYNINEPLNESVHMATSARELIKYRKLKYLQNEMIKKSLNSKRAQLEKLEAQNNEYKDVDKIIDNEMSKSHTINLERPNNNTGSGGKSYGGKLFNGFNKLASMVKDSVKYQETDPHTASINLKKEIEQLSESLEVTENDLEVISKVIKNDQLPKFSKEREVDLSEILKHYSRYMRNYARQNLEIWKEVKRHQDFA
B3: 6-phosphofructo-2-kinase Pfk26 (enzyme, UniProt P40433 1-827)
chain: MFKPVDFSETSPVPPDIDLAPTQSPHHVAPSQDSSYDLLSRSSDDKIDAEKGPHDELSKHLPLFQKRPLSDTPISSNWNSPGITEENTPSDSPENSATNLKSLHRLHINDETQLKNAKIPTNDTTDYMPPSDGANEVTRIDLKDIKSPTRHHKRRPTTIDVPGLTKSKTSPDGLISKEDSGSKLVIVMVGLPATGKSFITNKLSRFLNYSLYYCKVFNVGNTRRKFAKEHGLKDQDSKFFEPKNADSTRLRDKWAMDTLDELLDYLLEGSGSVGIFDATNTSRERRKNVLARIRKRSPHLKVLFLESVCSDHALVQKNIRLKLFGPDYKGKDPESSLKDFKSRLANYLKAYEPIEDDENLQYIKMIDVGKKVIAYNIQGFLASQTVYYLLNFNLADRQIWITRSGESEDNVSGRIGGNSHLTPRGLRFAKSLPKFIARQREIFYQNLMQQKKNNENTDGNIYNDFFVWTSMRARTIGTAQYFNEDDYPIKQMKMLDELSAGDYDGMTYPEIKNNFPEEFEKRQKDKLRYRYPGIGGESYMDVINRLRPVITELERIEDNVLIITHRVVARALLGYFMNLSMGIIANLDVPLHCVYCLEPKPYGITWSLWEYDEASDSFSKVPQTDLNTTRVKEVGLVYNERRYSVIPTAPPSARSSFASDFLSRKRSNPTSASSSQSELSEQPKNSVSAQTGSNNTTLIGSNFNIKNENGDSRIPLSAPLMATNTSNNILDGGGTSISIHRPRVVPNQNNVNPLLANNNKAASNVPNVKKSAATPRQIFEIDKVDEKLSMLKNKSFLLHGKDYPNNADNNDNEDIRAKTMNRSQSHV

molecular target: T1, FLAG-tagged Drosophila spartin (Drosophila); assay: affinity purification with mass spectrometry; whole-cell extracts of yeast expressing FLAG-tagged Drosophila spartin (vector control beside it) on anti-FLAG M2 agarose beads; eluates on Tricine-SDS-PAGE, lanes cut into slices, in-gel trypsin digest, LC-MS/MS

Row | binding | Binder
1 | binds | B1
2 | binds | B2
3 | binds | B3
